# Measured values: PubChem BioAssay AID1347075 (National Center for Advancing Translational Sciences (NCATS), 2019)
# Among all 400,000 compounds or so, about 5,500 (1.4%) were called active. The inconclusive results got no clear call from the source; some entries with a clear call stand among them for comparison. The call rests on the fitted dose curve; in most records, active means well fitted cell-killing curve with a large enough effect; inconclusive means small, poorly fitted or top-dose-only effect, or effect the other way; inactive means flat fitted curve, though single readings scatter. Potencies beside an inconclusive call are fits to weak or partial responses and may not hold up.
# Test: qHTS assay for MDR1-selective chemotherapeutics: Primary screen using the parental adenocarcinoma cell KB-3-1; further: nearly all actives have a fitted effect of over 60% in size
# Details: KB-3-1 viability, CellTiter-Glo ATP luminescence, 72 h; activity change, negative = cytotoxic: at 46.1 µM (top of the series)
# Outline: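 KB-3-1 cells, DMEM (no phenol red) + 10% FBS; compound by pin transfer, 72 h, 37 °C. Readout: CellTiter-Glo luminescence after 10 min. Data normalized, curve-fitted.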
# On the % scale 0 is the no-effect control and ±100 the full control effect; potency means the concentration at half of the fitted maximal effect.
SMILES,Potency,"activity change, negative = cytotoxic"
CC(=O)CSc1nc(-c2ccccc2)c(-c2ccccc2)o1,inactive,
S=C(NCC1(c2ccccc2)CCCC1)Nc1ccccc1,"inconclusive: 23.1 µM [cytotoxic, single point]",
O=C(Nc1ccccc1)c1nc[nH]c1C(=O)NCc1ccccc1,"inconclusive: 25.9 µM [cytotoxic, single point]",
O=C(N/N=C/c1cc(Cl)cc([N+](=O)[O-])c1O)C1CC1,"inconclusive: 16.4 µM [cytotoxic, single point]",
OCC1(CCCc2ccccc2)CCN(Cc2cnc(N3CCOCC3)s2)CC1,active: 20.6 µM,
O=C(c1nc2ccccc2[nH]1)c1ccccc1[N+](=O)[O-],"inconclusive: 18.4 µM [rising, partial curve]",
CCN1C(=O)c2cccc3c(S(=O)(=O)N4CCC(C)CC4)ccc1c23,"inconclusive: 29.1 µM [cytotoxic, single point]",
COc1ccc(CCN2C(=O)CSC2=S)cc1OC,active: 6.51 µM,
CC(=O)c1ccc2c(c1)N(Cc1ccccc1Cl)C(=O)C(C)S2 (centres undefined),"inconclusive: 23.1 µM [cytotoxic, single point]",
COC(=O)c1cccc(COC(=O)c2ccc(CS(=O)(=O)c3ccc(C)cc3)cc2)c1,"inconclusive: 22.4 µM [cytotoxic, single point]",
COc1cc2c(cc1NC(=S)Nc1cccc(C)c1)oc1ccccc12,inactive,
Oc1ccc(C[C@H]2CNCCN2CCC23CC4CC(CC(C4)C2)C3)cc1,"inconclusive: 25.9 µM [cytotoxic, single point]",
O=C(Nc1ccc2c(c1)OCCO2)N1CCN(c2ccc(F)cc2)CC1,"inconclusive: 23.1 µM [cytotoxic, partial curve, poor fit]",
CCOC(=O)c1ccc(NC(=O)c2c(N)n(Cc3ccccc3)c(=O)[nH]c2=O)cc1,inactive,
COc1cccc2sc(Nc3nc(C)c(C(C)=O)s3)nc12,"inconclusive: 20.6 µM [cytotoxic, single point]",
COc1ccccc1N1CCN(S(=O)(=O)CCNC(=O)Cc2ccc(F)cc2)CC1,"inconclusive: 29.1 µM [cytotoxic, single point]",
O=C(O)c1ccc(-c2noc(-c3ccccc3F)n2)cc1,"inconclusive: 20.6 µM [cytotoxic, single point]",
N#C/C(=N\Nc1ccc(Cl)c(Cl)c1)C(=O)C1CC1,active: 16.4 µM,
CC1(C)c2ccccc2N2CC(=O)N[C@@]21/C=C/C=C/c1ccccc1,"inconclusive: 1.3 µM [cytotoxic, full curve]",
Cc1ccc(Nc2nc(N)nc(N)c2S(=O)(=O)c2ccccc2)cc1,"inconclusive: 29.1 µM [cytotoxic, single point]",
COc1ccc(-c2c(C)sc(NC(=O)c3ccnn3C)c2C#N)cc1,active: 10.3 µM,
COC(=O)c1sccc1S(=O)(=O)N(CC(=O)NCc1ccccc1)c1ccc(C)cc1,inactive,
O=C(NNC(=O)c1cc(Cl)ccc1O)c1cccs1,inactive,

SMILES,Potency,"activity change, negative = cytotoxic"
Cc1ccccc1-c1cc(C(=O)N2CCCC2)c2ccccc2n1,"inconclusive: 29.1 µM [rising, single point]",
Cc1ccc(S(=O)(=O)CCC(=O)N2CCc3ccccc32)cc1,inactive,
CCN=C1S/C(=C\c2sccc2C)C(=O)N1CC,"inconclusive: 29.1 µM [cytotoxic, single point]",
CCOC(=O)[C@H]1[C@H]2COc3ccc(Br)cc3[C@@H]2N2C(=O)c3ccc(Cl)cc3NC(=O)[C@@]12C,,inconclusive: -76.8%
Cc1cc(SCC(=O)N/N=C/c2ccc(O)cc2O)c(C)cc1Br,"inconclusive: 20.6 µM [cytotoxic, single point]",
C[C@H](CO)N1C[C@H](C)[C@@H](CN(C)C(=O)Nc2ccc(C(F)(F)F)cc2)Oc2c(NC(=O)Nc3ccccc3)cccc2C1=O,"inconclusive: 29.1 µM [cytotoxic, single point]",
COc1ccc(NC(=O)CSC2=C(C#N)C(c3ccco3)C(C(=O)Nc3nc4ccccc4s3)=C(C)N2)cc1 (centres undefined),"inconclusive: 23.1 µM [cytotoxic, single point]",
CCCCc1cn([C@@H](CCCCNC(=O)OC(C)(C)C)C(=O)N2CCN(C(=O)OC(C)(C)C)CC2)nn1,"inconclusive: 3.66 µM [rising, partial curve]",
CN[C@H]1CC[C@@H](c2ccc(Cl)c(Cl)c2)c2ccccc21,"inconclusive: 29.1 µM [cytotoxic, single point]",
COc1ccc(-c2cc3nc(C)c(CCC(=O)N4CCN(c5cc(C)ccc5C)CC4)c(C)n3n2)c(OC)c1,inactive,
Cn1cc(S(=O)(=O)c2ccc(Cl)cc2)c(=O)c2cc(F)c(N3CCOCC3)cc21,inactive,
CC(=O)c1ccc(-c2ccc(C(=O)N(C)Cc3nc4ccccc4c(=O)[nH]3)o2)cc1,inactive,
COc1ccc(-c2ccc(SCC(=O)c3ccc(F)cc3)nn2)cc1OC,inactive,
COc1cc(C(=O)O/N=C2\C=CC(=O)C(C)=C2)cc(OC)c1OC,"inconclusive: 29.1 µM [cytotoxic, single point]",
Cc1cc(C(=O)CSc2nc3ccccc3[nH]2)c(C)n1CC1CCCO1 (centres undefined),active: 3.66 µM,
O=C(Nc1ccccc1)C1=C[C@@H](C2CCCCC2)C[C@@H](OCc2ccc(CO)cc2)O1,"inconclusive: 29.1 µM [cytotoxic, single point]",
COc1ccc(CC(=O)OC(C)C(=O)Nc2ccc(Cl)cn2)cc1 (centres undefined),"inconclusive: 0.0046 µM [rising, full curve, poor fit]",
O=C(CCN1CCOCC1)c1ccc2c(c1)OCCO2,"inconclusive: 23.1 µM [cytotoxic, single point]",
COc1ccccc1Nc1nc(-c2sc(NC(=O)C(C)(C)C)nc2C)cs1,active: 8.2 µM,
CCOc1cc(/C=N/NC(=O)CSc2nnc(C)s2)ccc1OCc1ccccc1Cl,"inconclusive: 29.1 µM [cytotoxic, single point]",
CN(C)c1cccc(F)c1C(=O)NC(=O)Nc1ccc(Cl)cc1,active: 3.66 µM,
CCN(C(=O)C1CCN(c2nc(-c3ccc(OC)cc3)no2)CC1)c1ccc(OC)cc1,"inconclusive: 23.1 µM [cytotoxic, single point]",
CCOC(=O)c1ccc(-c2csc(NC(=O)CN3CCC(C)CC3)n2)cc1,inactive,

SMILES,Potency,"activity change, negative = cytotoxic"
O=C(Cn1cc([N+](=O)[O-])ccc1=O)NCC(=O)Nc1ccc(F)c(F)c1F,"inconclusive: 16.4 µM [rising, partial curve]",
Cc1ccc(/C=C2\SC(=S)N(CCCC(=O)Nc3cccnc3)C2=O)cc1,"inconclusive: 18.4 µM [cytotoxic, partial curve, poor fit]",
CCc1cc(C(=O)N/N=C/c2ccc(O)cc2)c2ccccc2n1,"inconclusive: 25.9 µM [cytotoxic, partial curve]",
CC(=O)Nc1ccc(NC(=O)c2cc(-c3cc(C)cc(C)c3O)n[nH]2)cc1,"inconclusive: 16.4 µM [cytotoxic, single point]",
Cn1c2ccccc2c(=O)c2ccc(C#CC3(N)CCCCC3)cc21,"inconclusive: 18.4 µM [cytotoxic, single point]",
CC(=O)C1(O)Cc2c(O)c3c(c(O)c2C(OC2CC(N)C(O)C(C)O2)C1)C(=O)c1c(O)cccc1C3=O (centres undefined),active: 0.58 µM,
S=C(NCC1CC1)N/N=C/c1ccccc1Cl,inactive,
COc1ccccc1-c1cc(C(=O)NC2CCCC2)no1,"inconclusive: 0.0206 µM [cytotoxic, full curve]",
CCn1cc(CN2CCCC(C(=O)c3ccc(-c4ccccc4)cc3)C2)cn1 (centres undefined),"inconclusive: 29.1 µM [cytotoxic, single point]",
Cc1ccc(OCC(=O)Nc2ccc3c(c2)OCCO3)cc1C,"inconclusive: 29.1 µM [cytotoxic, single point]",
COc1ccc2[nH]c(=O)c(CNc3ccccc3)cc2c1,"inconclusive: 29.1 µM [cytotoxic, single point]",
Cc1ccc(NC(=O)CN(C)C(=O)c2cccnc2Nc2cccc(C(F)(F)F)c2)cc1,"inconclusive: 18.4 µM [cytotoxic, single point]",
COc1ccc(C(=O)C=Cc2ccc3c(c2)OCO3)cc1OC,"inconclusive: 32.6 µM [cytotoxic, single point]",
COc1ccc(CN2CCN(Cc3cccc(Oc4ccccc4)c3)CC2)c(OC)c1OC,"inconclusive: 23.1 µM [cytotoxic, single point]",
O=C(NNS(=O)(=O)c1ccccc1F)c1sccc1-n1cccc1,inactive,
Cc1ccc(-c2noc(CSc3nnc(Cc4ccccc4)n3-c3ccc(Cl)cc3)n2)cc1,"inconclusive: 29.1 µM [cytotoxic, single point]",
COc1cccc(N2CCN(c3ncc4c(n3)CCN(Cc3ccc(Br)cc3)C4)CC2)c1,"inconclusive: 29.1 µM [cytotoxic, single point]",
CN1CCN(C(=O)/C=C/c2ccc(Cl)cc2)CC1,inactive,
CSc1ccc(C(=S)N2CCCC2)cc1,"inconclusive: 0.0092 µM [rising, full curve]",
NS(=O)(=O)c1cc(C(=O)OCC(=O)Nc2ccc(N3CCCCC3)cc2)ccc1Cl,inactive,
O=C(Nc1nc(-c2nc3ccccc3s2)cs1)C1COc2ccccc2O1 (centres undefined),"inconclusive: 0.164 µM [rising, full curve]",
Fc1cccc(CSc2ccc(-c3ccc4c(c3)OCO4)nn2)c1,"inconclusive: 18.4 µM [cytotoxic, single point]",
CNC[C@@H]1OCc2ccccc2-c2c(n(C)c3ccccc23)C(=O)N([C@H](C)CO)C[C@H]1C,inactive,

# Shown bar-delimited: entries from further up
SMILES | Potency | activity change, negative = cytotoxic
O=C(Cn1cc([N+](=O)[O-])ccc1=O)NCC(=O)Nc1ccc(F)c(F)c1F | inconclusive: 16.4 µM [rising, partial curve] | 
Cc1ccc(/C=C2\SC(=S)N(CCCC(=O)Nc3cccnc3)C2=O)cc1 | inconclusive: 18.4 µM [cytotoxic, partial curve, poor fit] | 
CCc1cc(C(=O)N/N=C/c2ccc(O)cc2)c2ccccc2n1 | inconclusive: 25.9 µM [cytotoxic, partial curve] | 
CC(=O)Nc1ccc(NC(=O)c2cc(-c3cc(C)cc(C)c3O)n[nH]2)cc1 | inconclusive: 16.4 µM [cytotoxic, single point] | 
Cn1c2ccccc2c(=O)c2ccc(C#CC3(N)CCCCC3)cc21 | inconclusive: 18.4 µM [cytotoxic, single point] | 
CC(=O)C1(O)Cc2c(O)c3c(c(O)c2C(OC2CC(N)C(O)C(C)O2)C1)C(=O)c1c(O)cccc1C3=O (centres undefined) | active: 0.58 µM | 
S=C(NCC1CC1)N/N=C/c1ccccc1Cl | inactive | 
COc1ccccc1-c1cc(C(=O)NC2CCCC2)no1 | inconclusive: 0.0206 µM [cytotoxic, full curve] | 
CCn1cc(CN2CCCC(C(=O)c3ccc(-c4ccccc4)cc3)C2)cn1 (centres undefined) | inconclusive: 29.1 µM [cytotoxic, single point] | 
Cc1ccc(OCC(=O)Nc2ccc3c(c2)OCCO3)cc1C | inconclusive: 29.1 µM [cytotoxic, single point] | 
COc1ccc2[nH]c(=O)c(CNc3ccccc3)cc2c1 | inconclusive: 29.1 µM [cytotoxic, single point] | 
Cc1ccc(NC(=O)CN(C)C(=O)c2cccnc2Nc2cccc(C(F)(F)F)c2)cc1 | inconclusive: 18.4 µM [cytotoxic, single point] | 
COc1ccc(C(=O)C=Cc2ccc3c(c2)OCO3)cc1OC | inconclusive: 32.6 µM [cytotoxic, single point] | 
COc1ccc(CN2CCN(Cc3cccc(Oc4ccccc4)c3)CC2)c(OC)c1OC | inconclusive: 23.1 µM [cytotoxic, single point] | 
O=C(NNS(=O)(=O)c1ccccc1F)c1sccc1-n1cccc1 | inactive | 
Cc1ccc(-c2noc(CSc3nnc(Cc4ccccc4)n3-c3ccc(Cl)cc3)n2)cc1 | inconclusive: 29.1 µM [cytotoxic, single point] | 
COc1cccc(N2CCN(c3ncc4c(n3)CCN(Cc3ccc(Br)cc3)C4)CC2)c1 | inconclusive: 29.1 µM [cytotoxic, single point] | 
